Patent US20070293656A1, “COLLAGEN BINDING PEPTIDES” (Epix Pharmaceuticals, Inc., priority 2005, published 2007)
Results are given in words; binding and its absence hold for the method and conditions named. Some results given as binding are weak or reduced against the parent protein; the word gives no strength.

By UniProt entry, the sequences of proteins in these tests, tags left out. Where a name states a change or a piece, a line headed by the entry shows the natural chain unless it says otherwise.
UniProt P02454: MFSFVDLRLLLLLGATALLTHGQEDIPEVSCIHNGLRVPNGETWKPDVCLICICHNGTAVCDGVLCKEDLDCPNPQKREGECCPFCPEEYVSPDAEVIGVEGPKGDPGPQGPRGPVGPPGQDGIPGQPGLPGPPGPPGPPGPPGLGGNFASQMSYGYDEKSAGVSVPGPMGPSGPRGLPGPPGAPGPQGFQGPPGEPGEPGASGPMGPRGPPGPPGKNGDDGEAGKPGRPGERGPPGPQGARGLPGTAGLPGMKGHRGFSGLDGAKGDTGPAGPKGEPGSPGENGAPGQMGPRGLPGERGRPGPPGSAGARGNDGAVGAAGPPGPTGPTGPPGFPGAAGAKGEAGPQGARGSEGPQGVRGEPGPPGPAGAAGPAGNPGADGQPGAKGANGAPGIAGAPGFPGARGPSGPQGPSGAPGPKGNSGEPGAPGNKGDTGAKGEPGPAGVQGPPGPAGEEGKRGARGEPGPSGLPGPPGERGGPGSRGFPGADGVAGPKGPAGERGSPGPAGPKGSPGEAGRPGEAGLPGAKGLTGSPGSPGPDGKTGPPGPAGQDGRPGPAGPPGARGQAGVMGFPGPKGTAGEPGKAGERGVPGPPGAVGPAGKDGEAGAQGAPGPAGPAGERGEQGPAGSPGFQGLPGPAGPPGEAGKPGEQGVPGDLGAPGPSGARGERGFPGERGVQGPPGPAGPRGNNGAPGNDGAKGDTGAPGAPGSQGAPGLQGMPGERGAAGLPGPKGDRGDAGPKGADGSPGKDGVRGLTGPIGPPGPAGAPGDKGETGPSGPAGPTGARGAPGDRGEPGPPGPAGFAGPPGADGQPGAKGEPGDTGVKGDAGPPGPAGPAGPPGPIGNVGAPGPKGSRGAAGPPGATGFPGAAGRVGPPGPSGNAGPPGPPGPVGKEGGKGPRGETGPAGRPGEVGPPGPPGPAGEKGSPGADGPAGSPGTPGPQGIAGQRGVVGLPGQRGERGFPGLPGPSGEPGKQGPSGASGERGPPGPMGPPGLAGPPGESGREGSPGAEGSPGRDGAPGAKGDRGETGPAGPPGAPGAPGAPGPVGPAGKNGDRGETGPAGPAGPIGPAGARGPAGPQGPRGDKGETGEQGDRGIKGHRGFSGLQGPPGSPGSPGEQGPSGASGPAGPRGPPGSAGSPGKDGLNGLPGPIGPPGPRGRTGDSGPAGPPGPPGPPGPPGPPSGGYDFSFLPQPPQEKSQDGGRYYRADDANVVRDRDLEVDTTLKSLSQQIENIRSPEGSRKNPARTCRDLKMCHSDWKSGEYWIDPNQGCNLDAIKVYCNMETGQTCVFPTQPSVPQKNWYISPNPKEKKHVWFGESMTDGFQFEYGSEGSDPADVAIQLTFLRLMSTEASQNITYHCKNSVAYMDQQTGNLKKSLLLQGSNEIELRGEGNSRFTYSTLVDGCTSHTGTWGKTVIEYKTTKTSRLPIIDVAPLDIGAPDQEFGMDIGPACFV
UniProt P02466: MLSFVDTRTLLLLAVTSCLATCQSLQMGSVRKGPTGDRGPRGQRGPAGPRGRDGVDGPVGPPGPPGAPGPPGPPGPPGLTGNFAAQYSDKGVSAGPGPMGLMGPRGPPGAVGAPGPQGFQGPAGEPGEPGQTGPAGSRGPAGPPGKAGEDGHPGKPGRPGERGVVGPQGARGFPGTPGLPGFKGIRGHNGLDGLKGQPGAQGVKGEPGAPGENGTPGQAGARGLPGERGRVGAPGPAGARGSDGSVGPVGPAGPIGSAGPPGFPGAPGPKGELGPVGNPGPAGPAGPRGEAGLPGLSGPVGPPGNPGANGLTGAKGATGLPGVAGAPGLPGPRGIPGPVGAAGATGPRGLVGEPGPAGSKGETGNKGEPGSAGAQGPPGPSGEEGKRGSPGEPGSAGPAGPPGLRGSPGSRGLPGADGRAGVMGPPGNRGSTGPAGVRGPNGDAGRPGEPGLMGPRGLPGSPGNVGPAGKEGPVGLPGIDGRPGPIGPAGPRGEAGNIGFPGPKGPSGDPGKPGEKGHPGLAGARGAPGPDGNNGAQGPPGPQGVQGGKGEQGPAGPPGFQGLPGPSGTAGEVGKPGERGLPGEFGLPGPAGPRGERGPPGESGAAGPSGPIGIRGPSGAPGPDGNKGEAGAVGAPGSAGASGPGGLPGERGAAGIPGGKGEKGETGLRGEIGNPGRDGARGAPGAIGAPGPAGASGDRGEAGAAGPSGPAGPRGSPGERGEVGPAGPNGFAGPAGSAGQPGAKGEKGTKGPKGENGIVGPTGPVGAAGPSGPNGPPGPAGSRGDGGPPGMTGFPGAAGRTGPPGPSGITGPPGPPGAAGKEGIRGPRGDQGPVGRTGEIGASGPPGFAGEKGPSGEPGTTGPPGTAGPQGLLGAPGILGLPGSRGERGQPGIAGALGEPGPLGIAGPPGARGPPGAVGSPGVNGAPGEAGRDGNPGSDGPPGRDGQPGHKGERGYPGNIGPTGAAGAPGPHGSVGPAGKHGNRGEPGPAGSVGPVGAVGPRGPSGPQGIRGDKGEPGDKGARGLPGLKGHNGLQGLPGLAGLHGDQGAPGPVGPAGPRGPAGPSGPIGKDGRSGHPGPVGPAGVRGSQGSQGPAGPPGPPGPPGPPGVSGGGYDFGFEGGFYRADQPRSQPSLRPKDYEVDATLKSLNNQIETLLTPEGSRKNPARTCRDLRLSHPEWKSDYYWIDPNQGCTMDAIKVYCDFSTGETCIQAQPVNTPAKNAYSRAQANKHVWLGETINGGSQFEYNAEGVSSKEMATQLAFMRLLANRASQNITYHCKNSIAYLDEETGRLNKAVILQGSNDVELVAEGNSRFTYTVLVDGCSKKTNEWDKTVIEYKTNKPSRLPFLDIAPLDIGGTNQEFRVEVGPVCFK

Biological target: rat collagen (acid soluble, type I, rat tail, Upstate 08-115) (rat) (UniProt P02454+P02466)
Assay: MR imaging of centrifuged rat type I collagen gel

- binding: binds
Binder: GQWHCTTRFPHHYCLYG (N-terminal Glu-DTPA-Gd on the G linker; C-terminal PEG-H) [Compound ID 1022]
